Measured data: PubChem BioAssay AID1224826 (NIAID, 2016)
Assay: 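Genes that change LPS-induced Tnf promoter activity in mouse macrophages when knocked down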 (primary screen). Cells: RAW264.7 G9 macrophages from mouse bearing reporters for p65 (GFP) and the Tnf promoter (mCherry). Reagent: siRNA pool against mouse genes, 100 nM. Time to read-out: 16 h of LPS stimulation, after 2 days of siRNA transfection. Challenge: bacterial lipopolysaccharide (Salmonella minnesota R595), 10 ng/ml. Measured: 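Nuclear mCherry signal of the Tnf promoter reporter measured by imaging after background removal, scaled to each plate median and turned into robust z-scores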. Reading the numbers: Tnf reporter robust z-score: higher = stronger Tnf promoter reporter signal after LPS; Tnf reporter intensity: higher = stronger Tnf promoter reporter signal. Call rule: 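a well counts as active at a score of -1.3 or below (Tlr4 knock-down control median) or above 3 (raised signal); controls and wells holding fewer than 50 cells are excluded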. Meaning of the calls: active = Tnf reporter clearly lowered or raised; inactive = no clear change in Tnf reporter.
The deposit covers about 17,000 reagents; below is an unselected part. About 1,110 of them (6.6%) count as active. 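Active means lowered or raised reporter signal; replicate intensities are raw and not normalised per plate.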 Unmarked entries are inactive.

target,Tnf reporter robust z-score,fewer than 50 cells in well,"Tnf reporter intensity, replicate 1","Tnf reporter intensity, replicate 2"
Ppp2r5e (GeneID 26932),-0.23,enough cells in well,211,191
Xlr4c (GeneID 72891),,fewer than 50 cells per well; well left out of calls,54.2,0
Ushbp1 (GeneID 234395),0.67,enough cells in well,144,82.5
Tacc2 (GeneID 57752),0.56,enough cells in well,280,157
Snx29 (GeneID 74478),-0.12,enough cells in well,168,118
Cyrib (GeneID 223601),1.68,enough cells in well,398,124
Rdh7 (GeneID 54150),2.23,enough cells in well,205,244
Agl (GeneID 77559),0.19,enough cells in well,126,185
Slc25a40 (GeneID 319653),0.61,enough cells in well,222,184
Hoxb8 (GeneID 15416),1.84,enough cells in well,424,249
Tmlhe (GeneID 192289),,fewer than 50 cells per well; well left out of calls,176,75.3
Calml4 (GeneID 75600),-0.2,enough cells in well,167,146
Rrp36 (GeneID 224823),2.08,enough cells in well,284,429
Cox7b2 (GeneID 78174),2.7,enough cells in well,373,136
Spag16 (GeneID 66722),1.08,enough cells in well,188,112
Mef2a (GeneID 17258),0.05,enough cells in well,251,222
Hspb1 (GeneID 15507),1.71,enough cells in well,342,326
Pcbd1 (GeneID 13180),0.35,enough cells in well,275,200
Zfp82 (GeneID 330502),-0.25,enough cells in well,143,80.7
Ano2 (GeneID 243634),,fewer than 50 cells per well; well left out of calls,124,95.6
Jdp2 (GeneID 81703),-0.01,enough cells in well,203,122
Srsf4 (GeneID 57317),2.16,enough cells in well,181,168
Ctr9 (GeneID 22083),-1.07,enough cells in well,74.7,54.1
Kcnq3 (GeneID 110862),0.97,enough cells in well,305,209
Gm4876 (GeneID 232599),-0.32,enough cells in well,190,179
Kcnh3 (GeneID 16512),-0.35,enough cells in well,203,138
Fbxo48 (GeneID 319701),-0.15,enough cells in well,151,158
Or2ak7 (GeneID 216783),-0.82,enough cells in well,157,68.5
Gmcl1 (GeneID 23885),0.91,enough cells in well,170,280
Or10a48 (GeneID 258721),2.36,enough cells in well,195,188
Rgs9bp (GeneID 243923),0.83,enough cells in well,168,115
Coro7 (GeneID 78885),2.03,enough cells in well,363,152
Or52b4 (GeneID 259083),4.07 (active),enough cells in well,218,299
Usf1 (GeneID 22278),-0.2,enough cells in well,228,198
Crcp (GeneID 12909),1.65,enough cells in well,297,264
Rmnd5b (GeneID 66089),-0.29,enough cells in well,216,75.3
Slc35f6 (GeneID 74919),,fewer than 50 cells per well; well left out of calls,231,89.8
Nlgn1 (GeneID 192167),-0.41,enough cells in well,159,131
Trmt11 (GeneID 73681),1.6,enough cells in well,332,124
D630004N19Rik (GeneID 402747),,fewer than 50 cells per well; well left out of calls,139,53.2
Cars1 (GeneID 27267),-0.14,enough cells in well,122,215
Wipf2 (GeneID 68524),-0.15,enough cells in well,184,67.9
Col23a1 (GeneID 237759),1.39,enough cells in well,315,213
Syt17 (GeneID 110058),1.63,enough cells in well,206,201
Lpar2 (GeneID 53978),0.45,enough cells in well,246,343
Asic3 (GeneID 171209),1.62,enough cells in well,285,322
Pdcd2 (GeneID 18567),-0.08,enough cells in well,243,171
Sfi1 (GeneID 78887),,fewer than 50 cells per well; well left out of calls,58.4,23.7
Nprl2 (GeneID 56032),-0.29,enough cells in well,160,264
Gtf3a (GeneID 66596),0.94,enough cells in well,352,197
Zfp281 (GeneID 226442),-0.69,enough cells in well,167,187
Mcfd2 (GeneID 193813),1.71,enough cells in well,340,197
Trappc11 (GeneID 320714),-0.37,enough cells in well,182,133
Map3k3 (GeneID 26406),-0.94,enough cells in well,134,107
Lce1b (GeneID 68720),-0.52,enough cells in well,74.8,89.3
Tesk2 (GeneID 230661),0.81,enough cells in well,229,163
Or5w13 (GeneID 258653),0.29,enough cells in well,198,171
Or51i2 (GeneID 259075),2.74,enough cells in well,190,226

As entered above:
Coro7 (GeneID 78885), Tnf reporter robust z-score = 2.03
For “fewer than 50 cells in well”, Gtf3a (GeneID 66596) has enough cells in well
Value for Lce1b (GeneID 68720) in “Tnf reporter robust z-score”: -0.52
Entry for Or52b4 (GeneID 259083) in “fewer than 50 cells in well”: enough cells in well (active)
Entry of Pcbd1 (GeneID 13180) in “Tnf reporter robust z-score”: 0.35
Value of Zfp281 (GeneID 226442) in “fewer than 50 cells in well”: enough cells in well
